Laboratory results taken from PubChem BioAssay AID504444 (National Center for Advancing Translational Sciences (NCATS), 2011).
In all, about 360,000 compounds went through this assay and about 7,500 (2.1%) were called active. Inconclusive means that the source gave no clear call. Such entries were picked first, then a sample of the others. Calls follow the shape of the dose curve; as a rule, active = well fitted inhibition curve with a large enough effect; inconclusive = small, poorly fitted or top-dose-only effect, or effect the other way; inactive = flat fitted curve, though single readings scatter. Potencies of inconclusive entries are doubtful fits and often do not repeat.

Assay: Nrf2 qHTS screen for inhibitors; also: nearly all actives have a fitted effect of over 60% in size
Conditions: A549 ARE-Fluc reporter, luciferase luminescence, 18-24 h; series mostly up to 46 µM
Procedure, shortened: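 Concentration-response testing used A549 ARE_Fluc cells at 5000 cells/well. Following an 18-24 h compound incubation, viability was read by fluorescence (Ex 405/Em 525) and luciferase output by luminescence.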
Potency is read from the fitted curve at half-maximal effect.

SMILES | Potency
CCCCC(CC)C(=O)Oc1ccc(O)c(C(C)(C)C)c1 (configuration not stated) | inactive
COc1ccc(C(=O)C(CCC(CNC(C)(C)C)C(=O)c2ccc(OC)cc2)CNC(C)(C)C)cc1 (configuration not stated) | inconclusive: 29.1 µM [falling, single point]
Cc1ccc(CNC(=O)C(Cc2ccccc2)NS(=O)(=O)c2ccc(Br)s2)cc1 (configuration not stated) | inconclusive: 29.1 µM [falling, single point]
Cc1nn(Cc2ccccc2)c2c1C(c1ccccc1)C(C#N)=C(N)O2 (configuration not stated) | inactive
CC1Sc2ccc(C(=O)OCc3ccccc3Cl)cc2NC1=O (configuration not stated) | inconclusive: 2.31 µM [activator, full curve, poor fit]
O=C(/C=C/c1ccccc1)c1cc(Br)ccc(=O)c1O | active: 18.4 µM
c1ccc(CNc2ccc3ccccc3n2)nc1 | inconclusive: 0.411 µM [activator, full curve, poor fit]
CCOC(=O)c1nc2ccccc2c(C)c1C | inconclusive: 13 µM [activator, partial curve, poor fit]
COCCNc1nnc(SC(C)C(=O)Nc2ccc(-c3nc4ccc(C)cc4s3)cc2)s1 (configuration not stated) | inconclusive: 2.31 µM [activator, partial curve, poor fit]
O=C(c1csc2ccccc12)N1CCN(c2ccccn2)CC1 | inconclusive: 14.6 µM [falling, partial curve, poor fit]
NC(=O)CSc1ncnc2c1nnn2Cc1ccc(F)cc1 | inconclusive: 5.17 µM [falling, full curve, poor fit]
Cc1occc1C(=O)O/N=C(\N)c1ccccc1 | inconclusive: 2.91 µM [activator, partial curve, poor fit]
Cc1ccc(-n2nc3c(=O)n(C(C)C(=O)NCc4ccc(OC(C)C)cc4)nc(C)c3c2C)cc1 (configuration not stated) | active: 1.84 µM
CCN(C(=O)CSc1nc(C)nc2sc3c(c12)CCC3)C1CCS(=O)(=O)C1 (configuration not stated) | inconclusive: 23.1 µM [falling, single point]
Cc1ccc(-c2cc(C(=O)Nc3nccs3)c3ccccc3n2)c(C)c1 | inconclusive: 16.4 µM [falling, single point]
Cc1cc(NC(=O)CCNS(=O)(=O)c2cc(Br)cnc2N)ccc1Br | inactive
CCCN1C(=O)c2cc(C(=O)Nc3cccc(C(C)=O)c3)ccc2C1Nc1cccc(C(C)=O)c1 (configuration not stated) | inactive
CCOC(=O)Cc1c(C)nc2c(-c3ccccc3)c(C)[nH]n2c1=O | inactive
OCCCn1c(C(CO)Nc2nc(-c3ccc(Cl)cc3)cs2)nc2ccccc21 (configuration not stated) | inactive
CN(CCOc1ccccc1)C(=O)C1CCC(=O)N(CCc2ccc(Cl)cc2)C1 (configuration not stated) | inconclusive: 18.4 µM [activator, partial curve, poor fit]
CCN(Cc1nc2ccccc2c(=O)[nH]1)C(=O)c1ccc(C)c(NC(=O)c2ccco2)c1 | active: 16.4 µM
O=[N+]([O-])c1ccc(Sc2ccccn2)nc1 | inactive
CC(C)Cn1cc(NC(=O)N2CCN(c3ccc(F)cc3)CC2)c2ccccc2c1=O | inconclusive: 16.4 µM [activator, partial curve]

SMILES | Potency
Cc1cccc(NC(=S)NC(=O)c2oc3ccccc3c2C)n1 | inconclusive: 4.11 µM [activator, full curve, poor fit]
O=C(COc1ccc(Cl)cc1)NNC(=O)c1ccc(=O)[nH]c1 | inconclusive: 3.66 µM [activator, full curve, poor fit]
COc1ccc(-c2nc3cc(NC(=S)NC(=O)Cc4ccccc4)ccc3o2)cc1 | inactive
CCOc1ccc(NC2=CC(=O)C(=O)c3ccccc32)cc1 | inconclusive: 29.1 µM [falling, single point]
Cc1[nH]c2ccc(C(=O)OC(C)C(=O)NC3CCCCC3C)cc2c1C (configuration not stated) | inconclusive: 18.4 µM [falling, single point]
COc1ccc(C2Nc3ccccc3NC3=C2C(=O)CC(C)(C)C3)cc1 (configuration not stated) | inconclusive: 23.1 µM [activator, single point]
CCOc1ccc2nc(NC(=O)c3nc(SCc4ccccc4F)ncc3Cl)sc2c1 | inactive
COc1ccc(/C=C2/SC(=O)NC2=O)cc1 | inconclusive: 4.11 µM [activator, partial curve]
COc1cccc(CN(C(=O)c2ccccc2)C2CCS(=O)(=O)C2)c1 (configuration not stated) | inactive
O=C(Nc1ccc(F)cc1)NC1(C(=O)NCc2ccc3c(c2)OCO3)CCCCC1 | inconclusive: 23.1 µM [falling, partial curve, poor fit]
COC1=CC(=O)c2ccccc2C1=O | active: 23.1 µM
Cc1cccc(-c2nc(CC(=O)Nc3cccc(S(=O)(=O)NC4=NCCC4)c3)cs2)c1 | inactive
N#Cc1c(C(F)(F)F)cc(-c2ccccc2)nc1SCCN1CCOCC1 | inconclusive: 20.6 µM [falling, partial curve, poor fit]
CCn1c(SCC(=O)Nc2ccc(OC)c(S(=O)(=O)N3CCCCC3)c2)nnc1C1CC1 | inconclusive: 0.0046 µM [falling, full curve, poor fit]
O=C(CN1CCN(c2ccccc2)CC1)Nc1ccncc1 | inconclusive: 29.1 µM [falling, single point]
Cc1cccc(CSc2nnc(-c3cccs3)n2Cc2ccco2)c1 | inconclusive: 32.6 µM [falling, partial curve, poor fit]
COc1cc(CCC(=O)Oc2ccc(C(C)=O)cc2)cc(OC)c1OC | inconclusive: 29.1 µM [activator, single point]
COc1ccc(-c2noc(CSc3ccccc3)n2)cc1OC | inconclusive: 11.6 µM [activator, partial curve]
CC(=O)Nc1ccc(C=NNc2ccc(S(=O)(=O)Nc3ccccc3C(=O)O)cc2[N+](=O)[O-])cc1 | inactive
Cc1ccc(S(=O)(=O)/N=c2\ccc(Cl)cn2C(F)F)cc1 | inactive
CC1CCN(Cc2c(C(=O)N/N=C/c3ccccc3O)nnn2-c2nonc2N)CC1 | inconclusive: 9.2 µM [falling, partial curve]
O=C(Cn1cnc2ccccc2c1=O)Nc1ccc2c(c1)OCCO2 | inconclusive: 7.31 µM [activator, partial curve]
Cc1cc(C)c2c(n1)nn1c(NCCCN(C)C)cc(C)nc21 | inconclusive: 20.6 µM [activator, partial curve, poor fit]

SMILES | Potency
O=C(COC(=O)c1ccc(NS(=O)(=O)c2cccs2)cc1O)NC1CCCCC1 | inconclusive: 23.1 µM [falling, partial curve, poor fit]
COc1cccc2cc(-c3nc(-c4ccccc4F)no3)c(=O)oc12 | inconclusive: 18.4 µM [activator, partial curve, poor fit]
O=C(NCc1ccccn1)c1ccc2c(=O)n(CCc3ccccc3)c(=O)[nH]c2c1 | inconclusive: 16.4 µM [falling, single point]
COc1ccc(C2c3ccc(O)cc3Oc3ncn(Cc4ccco4)c(=N)c32)cc1 (configuration not stated) | inactive
CCCCOc1ccc(/C=N/NC(=O)c2nnn(-c3nonc3N)c2C)cc1 | inconclusive: 32.6 µM [falling, single point]
COc1cccc(CNCCc2c[nH]c3ccccc23)c1OCc1ccc(F)cc1 | inactive
CC1CCCC(C)N1C(=O)COC(=O)Cc1c[nH]c2ccccc12 (configuration not stated) | inactive
Cc1ccc(C(C(=O)NC2CCCC2)N(C(=O)c2csnn2)C2CCCC2)o1 (configuration not stated) | inconclusive: 9.2 µM [activator, partial curve, poor fit]
CCCc1cc(C(=O)Nc2cnn(Cc3ccc(F)cc3)c2)no1 | inconclusive: 3.66 µM [activator, single point]
CC(=O)c1cccc(NC(=O)c2sc(-n3nc(C)c(Cc4ccccc4)c3C)nc2C)c1 | inconclusive: 6.51 µM [falling, full curve]
CCCCN(C)CC(O)Cn1cc(/C=C/C(=O)c2ccc(Br)cc2)c2ccccc21 (configuration not stated) | inconclusive: 20.6 µM [activator, partial curve, poor fit]
Cc1ccc(C(=O)c2ncc[nH]2)cc1 | inconclusive: 10.3 µM [activator, partial curve]
CN(C(=O)c1ccc(NC(=O)C2CCCN(C(=O)OC(C)(C)C)C2)cc1)C1CCC1 (configuration not stated) | inconclusive: 20.6 µM [falling, partial curve, poor fit]
CC(C)C(=O)N1CCN(c2ccc(NC(=S)NC(=O)c3cc4ccccc4o3)cc2)CC1 | inconclusive: 16.4 µM [falling, single point]
CC(/C=C\C=C\c1ccccc1)=N\NC(=O)c1cncc(Br)c1 | inconclusive: 29.1 µM [falling, single point]
O=C(CSc1nnc(CCCN2C(=O)c3cccc4cccc(c34)C2=O)n1-c1ccccc1)NCCCN1CCOCC1 | inconclusive: 4.11 µM [activator, partial curve, poor fit]
CCN(C(=O)CSc1nc2ccc([N+](=O)[O-])cc2s1)C1CCS(=O)(=O)C1 (configuration not stated) | inactive
Cc1cc(C)c(CSc2nnnn2-c2ccc(C(=O)O)cc2)c(C)c1 | inconclusive: 29.1 µM [falling, single point]
Cc1ccc(C(=O)COc2ccccc2N2C(=O)c3ccccc3C2=O)cc1 | inconclusive: 8.2 µM [activator, partial curve]
O=C(Nc1nnc(-c2ccccc2Cl)o1)c1ccc(S(=O)(=O)N2CCCCCC2)cc1 | inconclusive: 2.59 µM [falling, full curve]
O=C(Cn1c(SCc2ccc(F)cc2)nc2cccnc21)Nc1ccccc1F | inconclusive: 32.6 µM [falling, single point]

Compounds shown so far that have a cyano group (two):
SMILES | Potency
Cc1nn(Cc2ccccc2)c2c1C(c1ccccc1)C(C#N)=C(N)O2 (configuration not stated) | inactive
N#Cc1c(C(F)(F)F)cc(-c2ccccc2)nc1SCCN1CCOCC1 | inconclusive: 20.6 µM [falling, partial curve, poor fit]

Ordered by count of non-hydrogen atoms (descending): 3 of the compounds above.
SMILES | Potency
COc1ccc(C2c3ccc(O)cc3Oc3ncn(Cc4ccco4)c(=N)c32)cc1 (configuration not stated) | inactive
Cc1cc(C)c(CSc2nnnn2-c2ccc(C(=O)O)cc2)c(C)c1 | inconclusive: 29.1 µM [falling, single point]
Cc1ccc(C(=O)c2ncc[nH]2)cc1 | inconclusive: 10.3 µM [activator, partial curve]
